{"sequences": {"note": "The chains behind the UniProt entries cited, without tags or fusion partners. Where a name states a change or a piece, a line headed by the entry shows the natural chain unless it says otherwise.", "UniProt Q9USL2": "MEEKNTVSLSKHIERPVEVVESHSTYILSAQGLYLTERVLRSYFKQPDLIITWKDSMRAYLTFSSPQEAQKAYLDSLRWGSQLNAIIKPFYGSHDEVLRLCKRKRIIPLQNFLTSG"}, "source": "paper PMC8881624", "molecules": {"B1": {"name": "untagged Pof8 (recombinant) (protein, UniProt O13795 1-402)", "chain": "MFVPRQLNVRKIKAFTGKENNSIADGNNNKLKDEHYKHNEASKEPSHSISGGLMLNQQDRQLIEPLNPDFLSAVDSILEIYFHRERQKEKVHLAFLIQQDDFWKGIRPNPTQNNLKYALSYVTNALFHFDNSSHMVIRNENIVLPLDIPLYDRIIYVEPVPATLSNKSLLLAGKLRKYLKEFLPYVDAIGTPEGYAFVILYKKVDQSALSKLPVPPGWVLLTRKEWTNREEKYFENQLHLVKASSSDVSNSSNSFPENRYPKLTKVEKQMTKSVSKTSQTDKDEDNLDFTKNLLTRIKNLHPLTNKSTIHSLLSYVFSRQTQNIACEPMYIDYRKDETEAIIRWKTPLHAETCINAFRTQERKQNSHDDIRAHRKKGSSRPFLIAELITGEEEKNYWRMLKK"}}, "key": {"3xFLAG-Pof8 (S. pombe)": {"biological_target": "T1, 3xFLAG-Pof8 (S. pombe) (UniProt O13795)", "T1 sequence": "B1 chain", "assay": "co-IP; S. pombe cell-free extract in TMG(300), antibody-coated protein G Dynabeads (anti-FLAG, anti-V5 or anti-c-Myc), 4 h at 4 °C, western blot; beads also treated with RNase A or Benzonase (15 min, 37 °C); Pof8-Thc1 also in bmc1Δ background"}, "Lsm4-cMyc (S. pombe)": {"biological_target": "T2, Lsm4-cMyc (S. pombe) (UniProt O14352)", "T2 sequence": "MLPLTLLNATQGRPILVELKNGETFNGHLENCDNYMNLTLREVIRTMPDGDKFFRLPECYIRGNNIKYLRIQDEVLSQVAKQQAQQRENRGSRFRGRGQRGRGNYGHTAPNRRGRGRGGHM", "assay": "co-IP; S. pombe cell-free extract in TMG(300), antibody-coated protein G Dynabeads (anti-FLAG, anti-V5 or anti-c-Myc), 4 h at 4 °C, western blot; beads also treated with RNase A or Benzonase (15 min, 37 °C); Pof8-Thc1 also in bmc1Δ background"}, "[1]": {"biological_target": "6xHis-Thc1 (recombinant) (S. pombe)", "assay": "pull-down; 6xHis-Thc1 and untagged Pof8 co-expressed in E. coli, cleared lysate on Ni-NTA beads (50 mM sodium phosphate pH 8.0, 300 mM NaCl, 10% glycerol; wash 40 mM imidazole, elution 250 mM imidazole), Coomassie-stained SDS-PAGE"}}, "note": "Results are given in words; binding and its absence hold for the method and conditions named. In cells and extracts the contact can be indirect. Binding can be weak; no strength is given. Where a sequence is shown, tags or fusion partners need not be part of it.", "data": [{"molecule": "Thc1-2xV5 (from UniProt Q9USL2)", "values": [{"measurement": "binding", "setting": "3xFLAG-Pof8 (S. pombe)", "result": "binds"}, {"measurement": "binding", "setting": "Lsm4-cMyc (S. pombe)", "result": "binds"}]}, {"molecule": "B1", "values": [{"measurement": "binding", "setting": "[1]", "result": "binds"}]}]}
